In PMC9530166, “Allosteric regulation of glycogen breakdown by the second messenger cyclic di-GMP” (Nature Communications, 2022):

Tested on: S. venezuelae cell extracts
Experiment: c-di-GMP extraction and LC-MS/MS quantification in cell extracts
Design: species or system Streptomyces venezuelae

`Nc1nc2c(ncn2[C@@H]2O[C@@H]3COP(=O)(O)O[C@H]4[C@@H](O)[C@H](n5cnc6c(=O)[nH]c(N)nc65)O[C@@H]4COP(=O)(O)O[C@H]3[C@H]2O)c(=O)[nH]1` [c-di-GMP, bis-(3′−5′)-cyclic diguanosine monophosphate] was tested. Which “c-di-GMP level in cells, maximum” value (during spore formation) did it give?
The value was 68.0 ± 11.5 pmol/mg protein.

What about the “c-di-GMP level in cells” value (transition to sporulation, after 14 h incubation) of the same compound?
The value was 7.2 ± 3.9 pmol/mg protein.

And the “c-di-GMP level in cells” value (vegetative phase, after 8 h of growth in liquid MYM)?
The value was 36.1 ± 5.2 pmol c-di-GMP/mg protein.
